Measurements taken from PubChem BioAssay (NCATS).
Inconclusive results, whose numbers are uncertain, are shown with a selection of clear calls. Potencies beside an inconclusive call are fits to weak or partial responses and may not hold up. Active and inactive are the calls of the source. The call rests on the fitted dose curve; in most records, active means well fitted cell-killing curve with a large enough effect; inconclusive means small, poorly fitted or top-dose-only effect, or effect the other way; inactive means no such curve, though single readings can be large or run the other way.

Assay: Quantitative High-Throughput drug screen in 47 multiple myeloma cell lines against the NCATS MIPE library collection: KMS34_JCRB cell viability assay (AID 1918985); further: nearly all actives have a fitted effect of over 40% in size
Conditions: KMS34 myeloma viability, CellTiter-Glo ATP luminescence, 48 h; viability, percent of control: at 45.8 µM (top of the series)
Outline: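 500 cells/well; MIPE 4.0 drugs pin-transferred; 48 h, 37C, 5% CO2. CellTiter-Glo, 5 min RT, luminescence. Controls: DMSO 100%, media 0%.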
Potency means the concentration at half of the fitted maximal effect.

SMILES	viability, percent of control	Potency
CC(C)NCC(O)COc1ccc(COCCOC(C)C)cc1 (stereo not given)	inactive: 117%	–
OCCN(CCO)c1nc(N2CCCCC2)c2nc(N(CCO)CCO)nc(N3CCCCC3)c2n1	–	inconclusive: 29.6 µM [cytotoxic, single point]
CN1CCN(Cc2ccc(NC(=O)Nc3ccc(Oc4cc(NC(=O)C5CC5)ncn4)cc3)cc2C(F)(F)F)CC1	–	active: 0.332 µM
C=CCc1ccc(O)c(-c2ccc(O)c(CC=C)c2)c1	–	inconclusive: 20.9 µM [cytotoxic, partial curve]
O=C(C1CC1)N1CC[C@@H](Cn2c(-c3ccc(-c4ccc5occc5c4)cc3)nc3cnccc32)C1	–	inconclusive: 18.7 µM [cytotoxic, partial curve]
O=c1c(O)c(-c2cc(O)c(O)c(O)c2)oc2cc(O)cc(O)c12	–	inconclusive: 37.2 µM [cytotoxic, single point]
CCOC(CN1C(=O)[C@](CC(=O)Nc2ccc(C)cc2)(NC(=O)Nc2ccc(C)cc2)c2ccccc21)OCC	–	inconclusive: 37.2 µM [cytotoxic, single point]
COC1CCC(N(C(=O)C2CCC(C)CC2)c2cc(C3=CCCCC3)sc2C(=O)O)CC1 (stereo not given)	–	inconclusive: 33.2 µM [cytotoxic, partial curve, poor fit]
Cc1onc(-c2ccccc2)c1C(=O)N[C@@H]1C(=O)N2[C@@H](C(=O)O)C(C)(C)S[C@@H]12	–	inconclusive: 13.2 µM [cytotoxic, partial curve, poor fit]
NC(=O)c1ncn([C@@H]2O[C@H](CO)[C@@H](O)[C@@H]2O)c1N	inactive: 125%	–

Three entries already listed, arranged by length of the SMILES, high to low.
SMILES	viability, percent of control	Potency
Cc1onc(-c2ccccc2)c1C(=O)N[C@@H]1C(=O)N2[C@@H](C(=O)O)C(C)(C)S[C@@H]12	–	inconclusive: 13.2 µM [cytotoxic, partial curve, poor fit]
O=C(C1CC1)N1CC[C@@H](Cn2c(-c3ccc(-c4ccc5occc5c4)cc3)nc3cnccc32)C1	–	inconclusive: 18.7 µM [cytotoxic, partial curve]
O=c1c(O)c(-c2cc(O)c(O)c(O)c2)oc2cc(O)cc(O)c12	–	inconclusive: 37.2 µM [cytotoxic, single point]
